Experimental data: PubChem BioAssay AID652243 (Drosophila RNAi Screening Center, 2013)

Assay: 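Fly regulators of androgen-dependent reporter output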 (primary screen)
Cell system: Drosophila S2R+ cells
Reagents: long dsRNA against Drosophila genes
Time to read-out: 72 h (48 h, then 24 h hormone)
Treatment: synthetic androgen R1881 at 10 nM for 24 h
Read-out: 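Per-well raw luminescence of the androgen-driven firefly reporter and of the Renilla control, two replicates each, without normalisation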
Reading the numbers: firefly reporter light: higher = more light from androgen-responsive reporter; Renilla control light: higher = more constitutive control signal (cell number, transfection)
Active means: 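Across duplicate plates, a knock-down whose log firefly/Renilla ratio shifted a set fold down or up from the GFP/LacZ control mean was a hit; the downward cut appears as both 1.5 and 3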
Calls: active = hit: reporter lowered or raised; inactive = no hit
The screen tested about 24,000 reagents; shown is an unselected part of those that have a named target and a result. Over the whole deposit, 246 (1%) got an active call. 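Plates not normalised; calls are printed but the firefly/Renilla ratio behind them is not deposited; fold cut for lowering reported inconsistently.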 The raw values are shown without normalisation. Unmarked entries are inactive. A plus sign joins genes that one reagent is predicted to hit. Reagent sequences are not shown. Not given: the amount of reagent.

| gene | amplicon | firefly reporter light, replicate 1 | firefly reporter light, replicate 2 | Renilla control light, replicate 1 | Renilla control light, replicate 2 |
| --- | --- | --- | --- | --- | --- |
| alphaSnap | DRSC11285 | 52191 | 75072 | 4.23e5 | 3.62e5 |
| alphaSnap | DRSC29788 | 5.41e5 | 4.32e5 | 1.59e6 | 1.53e6 |
| Grd | DRSC11178 | 2.67e5 | 1.86e5 | 1.98e6 | 2.04e6 |
| Grd | DRSC28513 | 1.94e5 | 4.11e5 | 5.49e5 | 9.59e5 |
| Nmdar1 | DRSC12071 | 2.42e5 | 2.35e5 | 4.94e5 | 4.24e5 |
| Nmdar1 | DRSC12356 | 1.40e5 | 1.39e5 | 3.18e6 | 2.51e6 |
| Nmdar1 | DRSC24657 | 5.38e5 | 3.73e5 | 4.29e5 | 4.96e5 |
| CG8079 | DRSC07070 | 8.53e5 | 8.39e5 | 2.09e6 | 2.37e6 |
| CG8079 | DRSC07071 | 60815 | 78956 | 1.18e6 | 1.18e6 |
| form3 | DRSC10195 | 2.68e5 | 1.69e5 | 1.52e6 | 2.20e6 |
| form3 | DRSC10297 | 9.56e5 | 4.33e5 | 2.16e6 | 1.82e6 |
| form3 | DRSC11024 | 1.71e5 | 1.43e5 | 1.99e6 | 2.11e6 |
| CG17672 | DRSC09230 | 13508 | 17654 | 56644 | 58909 |
| CG17672 | DRSC10278 | 1.25e6 | 8.86e5 | 1.79e6 | 1.83e6 |
| Jupiter | DRSC15204 | 59612 | 86207 | 5.29e5 | 6.09e5 |
| Jupiter | DRSC15205 | 1.51e5 | 98760 | 2.55e6 | 2.42e6 |
| Jupiter | DRSC15389 | 96870 | 91755 | 2.40e6 | 1.96e6 |
| Asph | DRSC06783 | 93553 | 1.74e5 | 1.86e6 | 1.86e6 |
| Asph | DRSC07171 | 1.08e6 | 8.62e5 | 1.95e6 | 1.58e6 |
| Asph | DRSC29507 | 2.79e5 | 4.40e5 | 6.93e5 | 6.93e5 |
| kune | DRSC04860 | 3.25e5 | 3.70e5 | 1.96e6 | 2.31e6 |
| Msh6 | DRSC10759 | 1.82e5 | 2.26e5 | 1.69e6 | 1.32e6 |
| CG46339 | DRSC14136 | 84891 | 67476 | 6.79e5 | 6.13e5 |
| CG46339 | DRSC24047 | 2.69e5 | 1.70e5 | 6.02e5 | 2.82e5 |
| Cc2d2a | DRSC06750 | 81469 | 86111 | 1.80e6 | 1.80e6 |
| Cc2d2a | DRSC06779 | 92413 | 1.11e5 | 1.75e6 | 1.75e6 |
| Cc2d2a | DRSC26325 | 3.32e5 | 3.06e5 | 6.60e5 | 8.63e5 |
| Tssk | DRSC14784 | 1.56e5 | 1.61e5 | 1.61e6 | 1.76e6 |
| Tssk | DRSC26679 | 2.87e5 | 3.33e5 | 4.20e5 | 4.14e5 |
| eIF4H1 | DRSC20276 | 5.07e5 | 4.02e5 | 3.09e6 | 2.49e6 |
| ush | DRSC00843 | 7.68e5 | 8.65e5 | 2.65e6 | 1.73e6 |
| ush | DRSC26524 | 2.05e5 | 1.70e5 | 4.24e5 | 5.18e5 |
| PH4alphaEFB | DRSC14473 | 60891 | 58660 | 6.60e5 | 4.40e5 |
| PH4alphaEFB | DRSC14950 | 1.34e5 | 1.94e5 | 1.55e6 | 2.10e6 |
| CG10086 | DRSC14183 | 1.37e5 | 1.55e5 | 2.13e6 | 2.14e6 |
| CG8008 | DRSC07053 | 1.01e6 | 1.12e6 | 1.71e6 | 1.75e6 |
| CG8008 | DRSC27395 | 2.67e5 | 2.85e5 | 9.15e5 | 1.01e6 |
| CG8008 | DRSC39024 | 7.47e5 | 7.00e5 | 2.64e6 | 2.34e6 |
| Rexo5 | DRSC10981 | 1.61e5 | 1.15e5 | 1.29e6 | 1.36e6 |
| Syn | DRSC16876 | 1.13e5 | 1.07e5 | 1.89e6 | 1.79e6 |
| Syn | DRSC26448 | 2.32e5 | 1.56e5 | 4.82e5 | 4.57e5 |
| FipoQ | DRSC15413 | 61063 | 72233 | 5.17e5 | 3.48e5 |
| FipoQ | DRSC24515 | 6.46e5 | 6.34e5 | 5.51e5 | 5.60e5 |
| CG32537 | DRSC20073 | 76254 | 1.07e5 | 4.64e5 | 9.42e5 |
| CG32537 | DRSC23589 | 7.22e5 | 8.47e5 | 5.90e5 | 5.87e5 |
| term | DRSC21730 | 7.20e5 | 5.96e5 | 1.78e6 | 2.11e6 |
| Cubn | DRSC18256 | 68022 | 99439 | 7.66e5 | 7.65e5 |
| Cubn | DRSC29380 | 4.66e5 | 5.24e5 | 9.04e5 | 9.04e5 |
| CG9609 | DRSC20199 | 66675 | 72332 | 4.61e5 | 6.46e5 |
| CG9609 | DRSC26952 | 3.70e5 | 2.68e5 | 6.48e5 | 5.22e5 |
| cib | DRSC18660 | 2.21e5 | 2.07e5 | 1.85e6 | 1.93e6 |
| CG11529 | DRSC09839 | 1.50e5 | 79406 | 1.70e6 | 1.54e6 |
| Pstk + CG14210 + Tim9b | DRSC19566 | 1.62e5 | 1.40e5 | 6.01e5 | 5.21e5 |
| Pstk + CG14210 + Tim9b | DRSC29021 | 3.93e5 | 4.41e5 | 9.64e5 | 8.68e5 |
| Coq4 + frc | DRSC10381 | 2.39e5 | 92093 | 2.18e6 | 1.31e6 |
| Coq4 + frc | DRSC10382 | 4.03e5 | 2.04e5 | 2.27e6 | 1.91e6 |
| h-cup | DRSC15973 | 84504 | 32510 | 6.11e5 | 3.51e5 |
| h-cup | DRSC24713 | 7.14e5 | 6.81e5 | 7.37e5 | 9.23e5 |
